These are yes or no findings as the source states them, for the method shown. Binding seen in cells or lysates may run through a third protein. Some results given as binding are weak or reduced against the parent protein; the word gives no strength. For some assays here: Where a sequence is shown, tags or fusion partners need not be part of it. Each block holds one molecule with its values, some of them ahead of it.
Legend:
[1] = target: FLAG-YAP (UniProt P46937); assay: co-IP; HEK293T transfected with GFP-Kindlin-2 and FLAG-YAP, 48 h; lysates immunoprecipitated with anti-FLAG antibody and protein G-Sepharose
[2] = target: T1, FLAG-LATS1 kinase domain (truncate) (UniProt O95835); assay: co-IP; HEK293 co-transfected with GFP-Kindlin-2 and truncates of FLAG-LATS1; lysates immunoprecipitated with anti-FLAG antibody and protein G-Sepharose; blots for GFP and FLAG
T1 sequence: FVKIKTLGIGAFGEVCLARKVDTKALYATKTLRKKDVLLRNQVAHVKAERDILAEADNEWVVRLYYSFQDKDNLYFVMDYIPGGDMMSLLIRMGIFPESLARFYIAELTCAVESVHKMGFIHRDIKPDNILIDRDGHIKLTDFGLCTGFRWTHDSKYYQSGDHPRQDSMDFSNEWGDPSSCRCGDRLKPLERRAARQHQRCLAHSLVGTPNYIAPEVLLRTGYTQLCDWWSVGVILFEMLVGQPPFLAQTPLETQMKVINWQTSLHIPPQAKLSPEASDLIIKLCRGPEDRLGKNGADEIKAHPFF

Protein sequences, listed by entry. Tags and fused reporters are not part of them.
UniProt P46937: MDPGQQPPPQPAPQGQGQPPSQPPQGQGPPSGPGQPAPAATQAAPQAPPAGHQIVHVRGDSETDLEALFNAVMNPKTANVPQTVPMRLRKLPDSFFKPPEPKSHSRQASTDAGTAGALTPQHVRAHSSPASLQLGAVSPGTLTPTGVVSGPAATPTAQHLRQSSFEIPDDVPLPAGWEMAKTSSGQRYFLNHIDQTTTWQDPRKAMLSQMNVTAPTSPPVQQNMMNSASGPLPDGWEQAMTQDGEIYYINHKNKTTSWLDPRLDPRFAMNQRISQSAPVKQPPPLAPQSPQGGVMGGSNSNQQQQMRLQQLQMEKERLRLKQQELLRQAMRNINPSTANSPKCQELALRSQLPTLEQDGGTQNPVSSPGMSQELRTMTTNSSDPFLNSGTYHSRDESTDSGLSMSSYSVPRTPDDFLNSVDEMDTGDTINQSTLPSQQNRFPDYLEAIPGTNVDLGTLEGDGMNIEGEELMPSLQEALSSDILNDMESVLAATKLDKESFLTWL
UniProt P46938: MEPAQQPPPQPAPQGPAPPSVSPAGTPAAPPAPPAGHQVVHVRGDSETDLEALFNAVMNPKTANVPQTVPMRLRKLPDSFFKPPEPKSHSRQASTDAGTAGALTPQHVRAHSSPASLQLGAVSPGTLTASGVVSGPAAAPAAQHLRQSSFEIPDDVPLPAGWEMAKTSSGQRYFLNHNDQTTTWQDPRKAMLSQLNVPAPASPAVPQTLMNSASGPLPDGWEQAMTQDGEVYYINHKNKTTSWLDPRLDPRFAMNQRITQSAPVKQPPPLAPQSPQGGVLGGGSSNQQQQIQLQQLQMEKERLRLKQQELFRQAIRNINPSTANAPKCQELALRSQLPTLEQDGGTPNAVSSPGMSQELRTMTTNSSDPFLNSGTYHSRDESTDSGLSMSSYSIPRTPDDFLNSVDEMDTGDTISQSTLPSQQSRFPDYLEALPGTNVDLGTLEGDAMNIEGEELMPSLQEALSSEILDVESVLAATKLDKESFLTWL

[3] = target: T2, endogenous LATS1 (HEK293T cells) (human (endogenous in HEK293T)) (UniProt O95835); assay: co-IP; endogenous proteins in HEK293T; immunoprecipitation with anti-YAP or anti-LATS1 antibody; blot for Kindlin-2
T2 sequence: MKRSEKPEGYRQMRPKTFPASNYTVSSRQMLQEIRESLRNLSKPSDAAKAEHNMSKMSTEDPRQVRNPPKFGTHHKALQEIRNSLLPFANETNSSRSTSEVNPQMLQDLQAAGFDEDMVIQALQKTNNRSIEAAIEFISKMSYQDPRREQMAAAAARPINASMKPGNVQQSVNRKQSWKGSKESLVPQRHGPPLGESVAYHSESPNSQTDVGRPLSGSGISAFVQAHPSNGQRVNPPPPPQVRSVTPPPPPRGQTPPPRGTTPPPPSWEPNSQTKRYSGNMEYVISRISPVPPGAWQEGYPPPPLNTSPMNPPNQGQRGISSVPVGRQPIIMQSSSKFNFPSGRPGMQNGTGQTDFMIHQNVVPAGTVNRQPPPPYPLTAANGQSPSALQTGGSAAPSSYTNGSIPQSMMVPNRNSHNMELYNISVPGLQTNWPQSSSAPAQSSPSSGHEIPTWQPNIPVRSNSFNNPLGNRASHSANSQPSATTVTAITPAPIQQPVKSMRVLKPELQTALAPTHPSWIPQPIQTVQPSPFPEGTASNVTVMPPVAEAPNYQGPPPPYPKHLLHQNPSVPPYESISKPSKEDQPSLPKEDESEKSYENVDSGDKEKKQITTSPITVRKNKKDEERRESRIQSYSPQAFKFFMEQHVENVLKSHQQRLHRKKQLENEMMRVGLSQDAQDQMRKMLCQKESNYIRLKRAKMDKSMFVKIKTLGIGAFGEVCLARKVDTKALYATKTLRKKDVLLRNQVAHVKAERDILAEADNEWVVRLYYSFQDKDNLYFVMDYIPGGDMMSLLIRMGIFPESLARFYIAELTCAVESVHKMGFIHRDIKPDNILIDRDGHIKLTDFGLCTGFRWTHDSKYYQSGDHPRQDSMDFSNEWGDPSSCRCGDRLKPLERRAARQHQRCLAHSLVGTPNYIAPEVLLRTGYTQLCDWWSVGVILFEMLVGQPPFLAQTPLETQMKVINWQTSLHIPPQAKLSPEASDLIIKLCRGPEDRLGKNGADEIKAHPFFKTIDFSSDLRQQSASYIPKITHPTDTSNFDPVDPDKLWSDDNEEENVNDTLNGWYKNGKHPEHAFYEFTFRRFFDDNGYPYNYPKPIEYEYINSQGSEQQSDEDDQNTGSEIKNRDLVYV

[4] = target: endogenous YAP (HEK293T cells) (human (endogenous in HEK293T)) (UniProt P46937); assay: as above
[5] = target: T3, endogenous Kindlin-2 (TM4 cells) (mouse (endogenous in TM4)) (UniProt Q8CIB5); assay: co-IP; endogenous proteins; untreated TM4 lysate (RIPA buffer) immunoprecipitated with IgG or anti-Kindlin-2 antibody; blots for YAP, LATS1, Kindlin-2
T3 sequence: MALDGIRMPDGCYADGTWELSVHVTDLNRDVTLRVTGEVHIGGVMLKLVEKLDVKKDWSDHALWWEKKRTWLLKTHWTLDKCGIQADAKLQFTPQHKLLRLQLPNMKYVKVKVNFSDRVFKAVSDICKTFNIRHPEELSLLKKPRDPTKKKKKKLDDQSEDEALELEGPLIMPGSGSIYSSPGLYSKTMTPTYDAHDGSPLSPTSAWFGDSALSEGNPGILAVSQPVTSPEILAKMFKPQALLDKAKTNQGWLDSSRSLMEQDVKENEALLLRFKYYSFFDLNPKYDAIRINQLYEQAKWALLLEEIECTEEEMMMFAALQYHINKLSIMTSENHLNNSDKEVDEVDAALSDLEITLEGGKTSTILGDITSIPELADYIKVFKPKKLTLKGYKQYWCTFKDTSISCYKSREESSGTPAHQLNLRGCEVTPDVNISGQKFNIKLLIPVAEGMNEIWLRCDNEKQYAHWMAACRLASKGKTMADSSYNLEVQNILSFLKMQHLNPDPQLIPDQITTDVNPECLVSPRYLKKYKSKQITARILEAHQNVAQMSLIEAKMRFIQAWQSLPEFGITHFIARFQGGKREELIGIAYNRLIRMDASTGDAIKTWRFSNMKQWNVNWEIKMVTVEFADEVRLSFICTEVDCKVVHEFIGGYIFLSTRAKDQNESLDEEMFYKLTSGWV

[6] = target: FLAG-Kindlin-2 (UniProt Q96AC1); assay: co-IP; TM4 cells transfected with FLAG or FLAG-Kindlin-2, 48 h; lysates immunoprecipitated with anti-FLAG antibody and protein G-Sepharose; blots for endogenous YAP and LATS1

Molecule: GFP-Kindlin-2 (full-length) (from UniProt Q96AC1 1-680)
- binding [1]: binds
- binding [2]: binds

Molecule: endogenous Kindlin-2 (HEK293T cells) (from UniProt Q96AC1 1-680)
- binding [3]: binds
- binding [4]: binds

More lines, now with the values ahead:

- binding [5]: binds
- binding [6]: binds
Molecule: endogenous YAP (TM4 cells) (from UniProt P46938 1-488)

- binding [5]: binds
- binding [6]: binds
B1: endogenous LATS1 (TM4 cells) (protein, UniProt Q8BYR2 1-1129)
chain: MKRGEKPEGYRQMRPKTFPASNYPGSSRQMLQEIRESLRNLSKPSDASKAEHNLNKMSTEDPRQVRNPPKFGTHHKALQEIRNSLLPFANETSSSRSPSEVNPQMFQDLQAAGFDEDMVIQALQKTNNRSIEAAVEFISKMSYQDPRREQMSAAAARPINATMKPGNVQHSINRKQSWKGSKESLVPQRHGPSLGENVVYRSESPNSQADVGRPLSGSGIAAFAQAHPSNGQRVNPPPPPQVRSVTPPPPPRGQTPPPRGTTPPPPSWEPSSQTKRYSGNMEYVISRISPVPPGAWQEGYPPPPLTTSPMNPPSQAQRAISSVPVGRQPIIMQSTSKFNFTPGRPGVQNGGGQSDFIVHQNVPTGSVTRQPPPPYPLTPANGQSPSALQTGASAAPPSFANGNVPQSMMVPNRNSHNMELYNINVPGLQTAWPQSSSAPAQSSPSGGHEIPTWQPNIPVRSNSFNNPLGSRASHSANSQPSATTVTAITPAPIQQPVKSMRVLKPELQTALAPTHPSWMPQPVQTVQPTPFSEGTASSVPVIPPVAEAPSYQGPPPPYPKHLLHQNPSVPPYESVSKPCKDEQPSLPKEDDSEKSADSGDSGDKEKKQITTSPITVRKNKKDEERRESRIQSYSPQAFKFFMEQHVENVLKSHQQRLHRKKQLENEMMRVGLSQDAQDQMRKMLCQKESNYIRLKRAKMDKSMFVKIKTLGIGAFGEVCLARKVDTKALYATKTLRKKDVLLRNQVAHVKAERDILAEADNEWVVRLYYSFQDKDNLYFVMDYIPGGDMMSLLIRMGIFPENLARFYIAELTCAVESVHKMGFIHRDIKPDNILIDRDGHIKLTDFGLCTGFRWTHDSKYYQSGDHPRQDSMDFSNEWGDPSNCRCGDRLKPLERRAARQHQRCLAHSLVGTPNYIAPEVLLRTGYTQLCDWWSVGVILFEMLVGQPPFLAQTPLETQMKVINWQTSLHIPPQAKLSPEASDLIIKLCRGPEDRLGKNGADEIKAHPFFKTIDFSSDLRQQSASYIPKITHPTDTSNFDPVDPDKLWSDGSEEENISDTLNGWYKNGKHPEHAFYEFTFRRFFDDNGYPYNYPKPIEYEYIHSQGSEQQSDEDDQHTSSDGNNRDLVYV

Reference: article PMC8196014
